# Laboratory results: PMC11620747
# Amino acid sequences for entries named in this document (tags omitted). A change or cut given only in a name is not applied to a line headed by its entry.
# UniProt Q8IKF6: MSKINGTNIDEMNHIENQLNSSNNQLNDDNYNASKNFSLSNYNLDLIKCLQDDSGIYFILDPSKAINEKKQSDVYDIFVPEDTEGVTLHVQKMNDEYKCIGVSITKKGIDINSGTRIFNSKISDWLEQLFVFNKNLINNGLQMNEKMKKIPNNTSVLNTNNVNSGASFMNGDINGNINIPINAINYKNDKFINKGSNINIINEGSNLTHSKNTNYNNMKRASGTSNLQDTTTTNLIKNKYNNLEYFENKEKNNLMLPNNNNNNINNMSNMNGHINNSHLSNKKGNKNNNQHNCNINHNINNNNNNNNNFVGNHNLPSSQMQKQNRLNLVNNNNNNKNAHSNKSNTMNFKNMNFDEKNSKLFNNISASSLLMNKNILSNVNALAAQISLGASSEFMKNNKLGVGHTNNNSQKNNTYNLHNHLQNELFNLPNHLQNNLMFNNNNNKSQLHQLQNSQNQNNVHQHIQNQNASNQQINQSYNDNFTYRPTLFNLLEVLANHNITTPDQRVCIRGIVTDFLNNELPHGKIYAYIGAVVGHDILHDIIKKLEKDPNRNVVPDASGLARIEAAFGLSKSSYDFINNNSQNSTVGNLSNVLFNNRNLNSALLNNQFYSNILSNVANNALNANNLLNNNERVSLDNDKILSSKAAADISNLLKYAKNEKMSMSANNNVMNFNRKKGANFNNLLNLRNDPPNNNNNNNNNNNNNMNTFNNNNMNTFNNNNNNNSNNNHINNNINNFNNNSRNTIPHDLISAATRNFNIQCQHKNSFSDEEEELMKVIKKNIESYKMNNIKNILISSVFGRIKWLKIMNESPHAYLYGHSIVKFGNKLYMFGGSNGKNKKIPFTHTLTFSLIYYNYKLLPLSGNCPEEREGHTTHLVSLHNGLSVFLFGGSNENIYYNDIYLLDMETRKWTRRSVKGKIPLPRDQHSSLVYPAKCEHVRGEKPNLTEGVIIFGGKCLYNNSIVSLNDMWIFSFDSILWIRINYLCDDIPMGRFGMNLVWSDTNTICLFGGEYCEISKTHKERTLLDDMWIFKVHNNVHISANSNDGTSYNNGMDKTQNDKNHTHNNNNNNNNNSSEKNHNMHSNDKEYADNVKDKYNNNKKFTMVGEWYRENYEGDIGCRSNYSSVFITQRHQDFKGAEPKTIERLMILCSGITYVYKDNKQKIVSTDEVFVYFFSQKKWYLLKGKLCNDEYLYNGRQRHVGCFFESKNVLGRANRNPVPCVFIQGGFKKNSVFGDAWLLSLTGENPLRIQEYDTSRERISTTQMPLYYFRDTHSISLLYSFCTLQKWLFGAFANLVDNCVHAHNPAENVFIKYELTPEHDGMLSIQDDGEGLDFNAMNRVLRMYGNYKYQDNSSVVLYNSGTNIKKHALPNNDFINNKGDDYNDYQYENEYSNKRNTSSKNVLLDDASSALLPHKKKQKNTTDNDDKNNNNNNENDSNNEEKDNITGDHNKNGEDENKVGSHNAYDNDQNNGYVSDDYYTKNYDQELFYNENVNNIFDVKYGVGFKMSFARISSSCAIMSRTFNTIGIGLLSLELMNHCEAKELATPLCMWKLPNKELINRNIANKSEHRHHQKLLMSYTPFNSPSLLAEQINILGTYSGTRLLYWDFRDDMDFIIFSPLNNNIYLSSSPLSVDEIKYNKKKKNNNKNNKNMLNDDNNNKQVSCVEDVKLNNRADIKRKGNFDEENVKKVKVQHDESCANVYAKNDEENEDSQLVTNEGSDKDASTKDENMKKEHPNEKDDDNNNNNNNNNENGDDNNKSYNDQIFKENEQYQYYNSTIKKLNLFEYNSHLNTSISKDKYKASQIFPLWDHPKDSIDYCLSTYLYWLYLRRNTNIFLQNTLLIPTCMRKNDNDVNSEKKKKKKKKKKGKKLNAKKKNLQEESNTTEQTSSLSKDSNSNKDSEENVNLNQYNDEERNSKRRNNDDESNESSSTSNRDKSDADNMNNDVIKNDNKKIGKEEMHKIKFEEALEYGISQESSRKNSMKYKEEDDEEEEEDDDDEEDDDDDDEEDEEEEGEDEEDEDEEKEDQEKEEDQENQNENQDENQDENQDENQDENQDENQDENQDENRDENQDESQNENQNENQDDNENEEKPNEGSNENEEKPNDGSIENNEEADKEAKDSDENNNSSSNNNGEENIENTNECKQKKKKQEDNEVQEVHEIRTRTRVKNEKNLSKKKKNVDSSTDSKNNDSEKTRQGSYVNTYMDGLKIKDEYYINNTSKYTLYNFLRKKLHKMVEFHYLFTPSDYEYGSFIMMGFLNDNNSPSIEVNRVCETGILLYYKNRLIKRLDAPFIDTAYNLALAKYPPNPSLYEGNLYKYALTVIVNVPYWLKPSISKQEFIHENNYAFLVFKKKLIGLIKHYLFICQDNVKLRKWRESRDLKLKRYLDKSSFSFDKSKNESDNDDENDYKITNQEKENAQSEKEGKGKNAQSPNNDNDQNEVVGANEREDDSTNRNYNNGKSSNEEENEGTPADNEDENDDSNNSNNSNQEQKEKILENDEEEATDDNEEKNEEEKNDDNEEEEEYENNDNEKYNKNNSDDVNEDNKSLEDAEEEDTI
# UniProt Q8IBB0: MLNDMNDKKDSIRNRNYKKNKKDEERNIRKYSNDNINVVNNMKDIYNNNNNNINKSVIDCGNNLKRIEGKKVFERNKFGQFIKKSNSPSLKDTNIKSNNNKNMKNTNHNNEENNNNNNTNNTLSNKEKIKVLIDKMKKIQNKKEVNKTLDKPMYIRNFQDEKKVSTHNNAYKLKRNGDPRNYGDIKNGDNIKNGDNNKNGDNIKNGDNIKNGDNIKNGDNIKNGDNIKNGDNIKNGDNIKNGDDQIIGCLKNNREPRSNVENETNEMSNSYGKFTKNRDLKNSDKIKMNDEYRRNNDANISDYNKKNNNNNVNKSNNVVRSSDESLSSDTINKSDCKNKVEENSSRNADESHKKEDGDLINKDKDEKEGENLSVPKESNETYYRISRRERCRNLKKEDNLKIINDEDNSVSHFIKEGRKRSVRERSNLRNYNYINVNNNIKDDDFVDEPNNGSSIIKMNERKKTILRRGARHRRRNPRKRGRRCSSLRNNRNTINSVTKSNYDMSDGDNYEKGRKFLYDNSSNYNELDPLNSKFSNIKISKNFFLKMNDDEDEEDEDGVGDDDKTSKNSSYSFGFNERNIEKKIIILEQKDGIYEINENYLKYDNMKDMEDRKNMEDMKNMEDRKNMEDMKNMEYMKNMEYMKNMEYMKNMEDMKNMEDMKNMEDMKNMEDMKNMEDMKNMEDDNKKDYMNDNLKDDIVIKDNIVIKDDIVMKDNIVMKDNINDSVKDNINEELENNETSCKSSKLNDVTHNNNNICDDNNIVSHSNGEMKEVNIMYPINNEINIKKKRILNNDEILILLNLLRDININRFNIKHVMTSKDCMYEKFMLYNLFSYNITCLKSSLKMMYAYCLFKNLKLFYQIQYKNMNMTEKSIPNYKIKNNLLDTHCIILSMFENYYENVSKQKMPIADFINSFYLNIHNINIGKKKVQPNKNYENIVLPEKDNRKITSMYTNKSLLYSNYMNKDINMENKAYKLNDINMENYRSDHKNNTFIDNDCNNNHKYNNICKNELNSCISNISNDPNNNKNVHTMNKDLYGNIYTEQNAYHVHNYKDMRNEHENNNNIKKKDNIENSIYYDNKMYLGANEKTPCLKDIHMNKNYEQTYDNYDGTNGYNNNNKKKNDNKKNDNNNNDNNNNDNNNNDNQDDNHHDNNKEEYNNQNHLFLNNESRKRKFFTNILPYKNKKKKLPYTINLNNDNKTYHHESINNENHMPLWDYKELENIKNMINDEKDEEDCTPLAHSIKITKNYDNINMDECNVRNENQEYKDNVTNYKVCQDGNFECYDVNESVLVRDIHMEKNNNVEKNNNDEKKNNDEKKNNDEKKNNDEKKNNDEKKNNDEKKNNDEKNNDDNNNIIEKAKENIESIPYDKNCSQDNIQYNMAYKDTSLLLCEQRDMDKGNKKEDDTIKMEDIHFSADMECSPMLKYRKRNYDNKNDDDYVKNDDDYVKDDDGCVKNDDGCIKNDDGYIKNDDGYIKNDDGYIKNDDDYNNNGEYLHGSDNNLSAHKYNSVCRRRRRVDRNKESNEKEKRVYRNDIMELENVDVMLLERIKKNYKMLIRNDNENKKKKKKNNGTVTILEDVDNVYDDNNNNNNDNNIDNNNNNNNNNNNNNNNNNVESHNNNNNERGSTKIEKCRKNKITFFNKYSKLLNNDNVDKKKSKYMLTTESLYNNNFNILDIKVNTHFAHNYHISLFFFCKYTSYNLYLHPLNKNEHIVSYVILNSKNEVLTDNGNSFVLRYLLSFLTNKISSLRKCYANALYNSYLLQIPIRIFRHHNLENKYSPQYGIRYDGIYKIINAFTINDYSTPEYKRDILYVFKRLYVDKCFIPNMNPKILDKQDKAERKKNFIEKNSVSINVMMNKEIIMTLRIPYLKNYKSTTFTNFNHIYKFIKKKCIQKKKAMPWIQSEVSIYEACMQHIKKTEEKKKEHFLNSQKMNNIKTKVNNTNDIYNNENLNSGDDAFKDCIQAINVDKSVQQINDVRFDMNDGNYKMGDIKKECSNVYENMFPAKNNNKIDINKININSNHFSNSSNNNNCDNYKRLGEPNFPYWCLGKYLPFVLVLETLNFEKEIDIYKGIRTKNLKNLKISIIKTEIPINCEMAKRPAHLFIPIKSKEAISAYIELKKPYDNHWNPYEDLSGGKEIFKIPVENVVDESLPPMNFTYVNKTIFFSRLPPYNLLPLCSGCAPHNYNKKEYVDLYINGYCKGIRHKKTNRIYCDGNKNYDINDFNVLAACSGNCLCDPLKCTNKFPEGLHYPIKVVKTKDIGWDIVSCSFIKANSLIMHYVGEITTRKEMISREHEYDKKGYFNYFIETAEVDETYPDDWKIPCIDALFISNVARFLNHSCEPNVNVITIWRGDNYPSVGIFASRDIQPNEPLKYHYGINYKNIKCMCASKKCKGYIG
# UniProt C6KSV9: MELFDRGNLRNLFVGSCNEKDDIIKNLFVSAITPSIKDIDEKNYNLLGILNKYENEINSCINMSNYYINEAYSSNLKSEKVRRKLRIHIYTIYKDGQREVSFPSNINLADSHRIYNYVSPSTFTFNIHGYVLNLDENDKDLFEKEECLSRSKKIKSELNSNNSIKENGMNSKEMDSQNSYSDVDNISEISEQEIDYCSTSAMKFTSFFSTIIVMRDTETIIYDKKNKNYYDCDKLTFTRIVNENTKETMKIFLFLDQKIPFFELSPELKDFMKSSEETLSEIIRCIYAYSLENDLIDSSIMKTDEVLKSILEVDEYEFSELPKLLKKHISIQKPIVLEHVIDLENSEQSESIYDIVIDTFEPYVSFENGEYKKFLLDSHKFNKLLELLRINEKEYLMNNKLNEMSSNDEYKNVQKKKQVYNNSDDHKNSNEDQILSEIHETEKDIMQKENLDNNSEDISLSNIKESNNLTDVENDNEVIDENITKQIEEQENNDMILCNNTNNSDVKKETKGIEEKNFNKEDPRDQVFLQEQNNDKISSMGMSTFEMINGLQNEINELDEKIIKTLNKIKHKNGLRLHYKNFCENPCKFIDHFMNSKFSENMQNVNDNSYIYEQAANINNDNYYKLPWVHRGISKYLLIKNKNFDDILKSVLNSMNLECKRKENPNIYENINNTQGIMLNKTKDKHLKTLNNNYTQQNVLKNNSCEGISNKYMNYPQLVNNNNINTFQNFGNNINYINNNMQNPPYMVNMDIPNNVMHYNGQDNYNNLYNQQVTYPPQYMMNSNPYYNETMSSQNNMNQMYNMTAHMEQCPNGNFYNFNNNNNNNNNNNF
# These are yes or no findings as the source states them, for the method shown. Binding seen in cells or lysates may run through a third protein. These calls come from enrichment with a bait or labelling near it, and not all partners need be listed.
# Target: PfMORC-HA (Plasmodium falciparum Microrchidia protein, 3xHA-tagged) (P. falciparum) (UniProt Q8IKF6)
# Assay: affinity purification with mass spectrometry; anti-HA immunoprecipitation (Dynabeads Protein A) from lysate of mid- to late-stage asexual PfMORC-HA parasites, parental line as control; IP buffer 50 mM Tris-HCl pH 7.5, 300 mM NaCl, 0.5 mM EDTA, 0.5 mM EGTA, 0.5% Triton X-100; 4 °C; MudPIT; QPROT log2 FC ≥2 and Z statistic >5
row,Substance,binding
1,AP2-P (from UniProt Q8IIS4),binds
2,BDP3 (from UniProt Q8I240),binds
3,N-acetyltransferase (PF3D7_1020700) (from UniProt Q8IJJ5) (enzyme),binds
4,PHD2 (from UniProt Q8ILC9),binds
5,SET3 (from UniProt Q8IBB0) (enzyme),binds
6,SWIB/MDM2 domain-containing protein (from UniProt C6KSV9),binds
